The supplement of paper PMC4604168 (melanoma cell lines)
Some of the results follow. Many values rest on one well or one pass, so single values are uncertain.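 Imaging used 1,536-well plates; nuclei positive for cleaved PARP by antibody were divided by total DNA-stained nuclei to yield the apoptosis fraction. Doses for screening kept most cells viable, and cell lines differ markedly in resting and induced cleaved-PARP levels.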

Key:
Test in all cases: cleaved PARP positive nuclei fraction relative to DMSO control; melanoma cells; higher = more apoptosis
Settings in all cases: library dose: low library concentration; 72 h
MZ2-MEL = system: MZ2-MEL
MeWo = system: MeWo
RPMI7951 = system: RPMI7951
RVH-421 = system: RVH-421
SkMel28 = system: SkMel28
SkMel2 = system: SkMel2
SkMel30 = system: SkMel30
SkMel5 = system: SkMel5
UACC257 = system: UACC257
UACC62 = system: UACC62
WM115 = system: WM115
WM1716 = system: WM1716
WM1745 = system: WM1745
WM3526 = system: WM3526
WM3619 = system: WM3619
WM451Lu = system: WM451Lu

Structure (SMILES) | cleaved PARP positive nuclei fraction (MZ2-MEL) [%] | cleaved PARP positive nuclei fraction (MeWo) [%] | cleaved PARP positive nuclei fraction (RPMI7951) [%] | cleaved PARP positive nuclei fraction (RVH-421) [%] | cleaved PARP positive nuclei fraction (SkMel28) [%] | cleaved PARP positive nuclei fraction (SkMel2) [%] | cleaved PARP positive nuclei fraction (SkMel30) [%] | cleaved PARP positive nuclei fraction (SkMel5) [%] | cleaved PARP positive nuclei fraction (UACC257) [%] | cleaved PARP positive nuclei fraction (UACC62) [%] | cleaved PARP positive nuclei fraction (WM115) [%] | cleaved PARP positive nuclei fraction (WM1716) [%] | cleaved PARP positive nuclei fraction (WM1745) [%] | cleaved PARP positive nuclei fraction (WM3526) [%] | cleaved PARP positive nuclei fraction (WM3619) [%] | cleaved PARP positive nuclei fraction (WM451Lu) [%]
NC1(c2ccc(-c3nc4ccn5c(=O)[nH]nc5c4cc3-c3ccccc3)cc2)CCC1 + O=C(O)c1ccc(-c2c[nH]c3ncc(-c4ccccc4)cc23)cc1C1CCCC1 [GSK650394] (first compound 0.4 µM, partner dose 0.16 µM) | 147 | 397 | 43.5 | 72.5 | 136 | 140 | 62.6 | 131 | 42.5 | 165 | 92.8 | 113 | 99.1 | 80.5 | 91.7 | 220
CN(c1ncccc1CNc1nc(Nc2ccc3c(c2)CC(=O)N3)ncc1C(F)(F)F)S(C)(=O)=O + OCCn1cc(-c2cnc3nnn(Cc4ccc5ncccc5c4)c3n2)cn1 [PF04217903] (first compound 0.08 µM, partner dose 1 µM) | 196 | 106 | 209 | 37 | 121 | 100 | 74.6 | 106 | 79.1 | 237 | 167 | 164 | 107 | 57.9 | 126 | 916
CC1(C)CCC(c2ccc(Cl)cc2)=C(CN2CCN(c3ccc(C(=O)NS(=O)(=O)c4ccc(N[C@H](CCN5CCOCC5)CSc5ccccc5)c(S(=O)(=O)C(F)(F)F)c4)cc3)CC2)C1 + O=C1NC(=O)/C(=C/c2ccc(-c3ccc(F)cc3O)o2)S1 [AS252424] (first compound 0.4 µM, partner dose 1 µM) | 166 | 181 | 254 | 169 | 186 | 121 | 58.7 | 197 | 121 | 99.3 | 314 | 163 | 2070 | 85.4 | 142 | 285
Cn1cnc2c(F)c(Nc3ccc(Br)cc3Cl)c(C(=O)NOCCO)cc21 [selumetinib] + O=C(O)c1ccc(-c2c[nH]c3ncc(-c4ccccc4)cc23)cc1C1CCCC1 [GSK650394] (first compound 0.015 µM, partner dose 0.16 µM) | 267 | 128 | 40.6 | 43.5 | 251 | 159 | 96.9 | 59.7 | 55 | 105 | 99.8 | 91 | 80.1 | 149 | 102 | 24.4
NC(=O)c1ccc(N(C(N)=O)c2c(F)cccc2F)nc1-c1ccc(F)cc1F + CN(NC(=O)CC(=O)NN(C)C(=S)c1ccccc1)C(=S)c1ccccc1 [STA4783] (first compound 0.4 µM, partner dose 0.006 µM) | 272 | 203 | 113 | 124 | 79.6 | 73.1 | 66.4 | 149 | 170 | 77.5 | 171 | 120 | 250 | 178 | 136 | 266
C[C@]1(O)C[C@@H](c2nc(-c3ccc4ccc(-c5ccccc5)nc4c3)c3c(N)nccn32)C1 + Oc1cc(-c2nc(-c3ccccc3)[nH]c2-c2ccncc2)ccc1Cl [L779450] (first compound 0.4 µM, partner dose 0.2 µM) | 84.7 | 65.5 | 114 | 99 | 308 | 112 | 102 | 79.2 | 122 | 224 | 191 | 84.4 | 113 | 181 | 110 | 68.1
CN(c1ncccc1CNc1nc(Nc2ccc3c(c2)CC(=O)N3)ncc1C(F)(F)F)S(C)(=O)=O + Cc1ccc(NC(=O)c2cccc(N(C)C)c2)cc1NC(=O)c1ccc(O)cc1 [ZM336372] (first compound 0.08 µM, partner dose 2 µM) | 195 | 94.7 | 252 | 234 | 40.3 | 70.4 | 80.8 | 125 | 98.3 | 71.7 | 169 | 167 | 90.6 | 58.3 | 105 | 62.2
Cn1cnc2c(F)c(Nc3ccc(Br)cc3Cl)c(C(=O)NOCCO)cc21 [selumetinib] + NCC(=O)Nc1ccc(-n2nc(C(F)(F)F)cc2-c2ccc3c(ccc4ccccc43)c2)cc1 [OSU03012] (first compound 0.015 µM, partner dose 1 µM) | 336 | 212 | 141 | 151 | 33.7 | 147 | 250 | 96.9 | 148 | 115 | 152 | 36.2 | 80.3 | 110 | 129 | 50.5
Cn1sc(=O)n(Cc2ccccc2)c1=O + COc1cc2ncnc(Nc3ccc(Oc4ccccc4)cc3)c2cc1OC [SrcI1] (first compound 0.4 µM, partner dose 2 µM) | 91.3 | 122 | 107 | 32.3 | 106 | 99.5 | 76.1 | 145 | 51.4 | 377 | 34 | 50.7 | 92.5 | 75.9 | 97.9 | 33.2
C[C@@H](N)c1ccc(C(=O)Nc2ccnc3[nH]ccc23)cc1 + COc1cc2c(Oc3ccc4[nH]c(C)cc4c3F)ncnc2cc1OCCCN1CCCC1 [cediranib] (first compound 0.4 µM, partner dose 0.4 µM) | 248 | 108 | 354 | 82.6 | 269 | 187 | 59.7 | 99.5 | 72.8 | 160 | 204 | 235 | 112 | 103 | 97.7 | 80.7
Cn1sc(=O)n(Cc2ccccc2)c1=O + CCN(CC)CCCCNc1ncc2cc(-c3cc(OC)cc(OC)c3)c(NC(=O)NC(C)(C)C)nc2n1 [PD173074] (first compound 0.4 µM, partner dose 0.1 µM) | 68.9 | 48.8 | 68.3 | 41.1 | 95.5 | 29.5 | 334 | 72.5 | 185 | 129 | 167 | 139 | 84 | 82 | 103 | 396
CS(=O)(=O)c1ccc(C(=O)Nc2ccc(Cl)c(-c3ccccn3)c2)c(Cl)c1 [vismodegib] + C=CCn1c(=O)c2cnc(Nc3ccc(N4CCN(C)CC4)cc3)nc2n1-c1cccc(C(C)(C)O)n1 [MK1775] (first compound 1 µM, partner dose 0.02 µM) | 108 | 55.1 | 96.7 | 101 | 345 | 59.2 | 65.8 | 137 | 71.4 | 152 | 163 | 180 | 109 | 62 | 112 | 64.3
COc1ccc(C2=N[C@@H](c3ccc(Cl)cc3)[C@@H](c3ccc(Cl)cc3)N2C(=O)N2CCNC(=O)C2)c(OC(C)C)c1 [Nutlin-3] + COc1ccc(-c2ccc3c(N4CCOCC4)nc(N4C[C@@H](C)O[C@@H](C)C4)nc3n2)cc1CO [KU0063794] (first compound 0.1 µM, partner dose 0.02 µM) | 51.8 | 32 | 233 | 97.7 | 56.1 | 111 | 85.8 | 80.3 | 150 | 122 | 167 | 173 | 91.8 | 85.6 | 119 | 99.6
CS(=O)(=O)c1ccc(C(=O)Nc2ccc(Cl)c(-c3ccccn3)c2)c(Cl)c1 [vismodegib] + Cn1cncc1[C@@](N)(c1ccc(Cl)cc1)c1ccc2c(c1)c(-c1cccc(Cl)c1)cc(=O)n2C [tipifarnib] (first compound 1 µM, partner dose 0.01 µM) | 128 | 102 | 77.2 | 81 | 56.9 | 92.1 | 196 | 43.2 | 90.8 | 74.6 | 109 | 82.6 | 98.7 | 132 | 109 | 82.8
CCCCCCCCc1ccc(CCC(N)(CO)CO)cc1 [fingolimod] + NC1(c2ccc(-c3nc4ccn5c(=O)[nH]nc5c4cc3-c3ccccc3)cc2)CCC1 [MK2206] (first compound 2 µM, partner dose 0.4 µM) | 164 | 119 | 35.4 | 199 | 170 | 99.5 | 83 |  |  | 138 | 188 | 190 | 116 | 31 | 106 | 29.1
C[C@@H](N)c1ccc(C(=O)Nc2ccnc3[nH]ccc23)cc1 + O=c1cc(-c2cccc3c2Sc2ccccc2S3)oc(N2CCOCC2)c1 [KU55933] (first compound 0.4 µM, partner dose 1 µM) | 177 | 156 | 89.7 | 182 | 219 | 59 | 64.1 | 82.4 | 185 | 206 | 207 | 425 | 98.2 | 64.5 | 97.1 | 69.5
CC(=O)O[C@@]12CO[C@@H]1C[C@H](O)[C@@]1(C)C(=O)[C@H](O)C3=C(C)[C@@H](OC(=O)[C@H](O)[C@@H](NC(=O)OC(C)(C)C)c4ccccc4)C[C@@](O)([C@@H](OC(=O)c4ccccc4)[C@H]21)C3(C)C [Docetaxel] + COCC[n+]1c2c(n(Cc3cnccn3)c1C)C(=O)c1ccccc1C2=O [YM155] (first compound 0.0001 µM, partner dose 0.0004 µM) | 748 | 1160 | 338 | 152 | 239 | 1260 | 430 |  |  | 857 | 403 | 150 | 189 | 282 | 128 | 124
CC1(C)CCC(c2ccc(Cl)cc2)=C(CN2CCN(c3ccc(C(=O)NS(=O)(=O)c4ccc(N[C@H](CCN5CCOCC5)CSc5ccccc5)c(S(=O)(=O)C(F)(F)F)c4)cc3)CC2)C1 + Cn1sc(=O)n(Cc2ccccc2)c1=O [TDZD-8] (first compound 0.4 µM, partner dose 0.4 µM) | 350 | 462 | 255 | 94.2 | 91.4 | 189 | 155 |  |  | 40.4 | 441 | 98.6 | 692 | 190 | 92.8 | 53.1
C[C@@H](N)c1ccc(C(=O)Nc2ccnc3[nH]ccc23)cc1 + COc1ccc(-c2ccc3c(N4CCOCC4)nc(N4C[C@@H](C)O[C@@H](C)C4)nc3n2)cc1CO [KU0063794] (first compound 0.4 µM, partner dose 0.02 µM) | 100 | 226 | 71.1 | 250 | 99.6 | 102 | 73.1 | 182 | 140 | 207 | 31.8 | 96.6 | 124 | 71.9 | 104 | 73.2

Already shown: entries from further up.
Structure (SMILES) | cleaved PARP positive nuclei fraction (MZ2-MEL) [%] | cleaved PARP positive nuclei fraction (MeWo) [%] | cleaved PARP positive nuclei fraction (RPMI7951) [%] | cleaved PARP positive nuclei fraction (RVH-421) [%] | cleaved PARP positive nuclei fraction (SkMel28) [%] | cleaved PARP positive nuclei fraction (SkMel2) [%] | cleaved PARP positive nuclei fraction (SkMel30) [%] | cleaved PARP positive nuclei fraction (SkMel5) [%] | cleaved PARP positive nuclei fraction (UACC257) [%] | cleaved PARP positive nuclei fraction (UACC62) [%] | cleaved PARP positive nuclei fraction (WM115) [%] | cleaved PARP positive nuclei fraction (WM1716) [%] | cleaved PARP positive nuclei fraction (WM1745) [%] | cleaved PARP positive nuclei fraction (WM3526) [%] | cleaved PARP positive nuclei fraction (WM3619) [%] | cleaved PARP positive nuclei fraction (WM451Lu) [%]
Cn1cnc2c(F)c(Nc3ccc(Br)cc3Cl)c(C(=O)NOCCO)cc21 [selumetinib] + O=C(O)c1ccc(-c2c[nH]c3ncc(-c4ccccc4)cc23)cc1C1CCCC1 [GSK650394] (first compound 0.015 µM, partner dose 0.16 µM) | 267 | 128 | 40.6 | 43.5 | 251 | 159 | 96.9 | 59.7 | 55 | 105 | 99.8 | 91 | 80.1 | 149 | 102 | 24.4
NC(=O)c1ccc(N(C(N)=O)c2c(F)cccc2F)nc1-c1ccc(F)cc1F + CN(NC(=O)CC(=O)NN(C)C(=S)c1ccccc1)C(=S)c1ccccc1 [STA4783] (first compound 0.4 µM, partner dose 0.006 µM) | 272 | 203 | 113 | 124 | 79.6 | 73.1 | 66.4 | 149 | 170 | 77.5 | 171 | 120 | 250 | 178 | 136 | 266
